± gives the standard deviation of the averaged measurements. Some of the results follow. Many values rest on one well or one pass, so single values are uncertain.

The test has as its system RAW 264.7 macrophages infected with S. aureus JE2-lux. Put plainly: host macrophage viability (CellTiter-Fluor) relative to DMSO vehicle; higher = more viable host cells. Conditions: 10 µM; treatment time 4 h; gentamicin 50 µg/ml.
Take `Cc1nnc(SCC(=O)NCc2ccc3c(c2)OCO3)s1`: the host macrophage viability was 120%.

For `Cc1ccc(NC(=S)N2CCC(NC(=O)c3cccc(F)c3)CC2)cc1C`, the host macrophage viability was 114%.

For `CCOC(=O)c1cc(C)nc2c1c(=O)n(CC(=O)Nc1c(C)cccc1CC)c(=O)n2C`, the host macrophage viability was 118%.

For `CN1CCc2c(sc(NC(=O)c3cc4cc([NH+]([O-])O)ccc4s3)c2C(N)=O)C1` (centres undefined), the host macrophage viability was found to be 103%.

For the molecule `CCOc1ccnc2c1c(=O)n(Cc1cccnc1)c(=O)n2C`, the host macrophage viability was determined as 93.3%.

For the molecule `CN(C)CCn1c(=O)c2cnc(-c3ccncc3)nc2n(C)c1=O`, the host macrophage viability was found to be 93.6%.

As for `CCOc1ccc(-c2cc(C(=O)Oc3cccc(Br)c3)no2)cc1`, the host macrophage viability was determined as 116%.

With `CCN1C(=O)/C(=C2\SC(=S)NC2=O)c2cc(Br)ccc21`, the host macrophage viability worked out at 102%.

Take `N#Cc1ccc(CSc2cnc3ccccc3n2)cc1`: the host macrophage viability came out at 130%.

Regarding `CCOc1ccc(C2CC(=O)Nc3c2cnn3-c2ccc3nncn3n2)cc1OC` (centres undefined), the host macrophage viability is 115%.

As to `CC(C(=O)NCCn1nc(-c2cccs2)oc1=O)c1ccccc1` (centres undefined), the host macrophage viability was found to be 134%.

`C=CCOc1ccccc1NC(=O)Cn1cnc2sc(C)cc2c1=O`: the host macrophage viability was determined as 97.8%.

For `O=C(Nn1cnc2c(cnn2-c2ccccc2)c1=O)c1cc2ccccc2o1`, the host macrophage viability turned out to be 121%.

In the case of `CN1CCCc2cc(C(CNC(=O)c3ccc4c(c3)OCO4)N3CCCCC3)ccc21` (centres undefined), the host macrophage viability is 106%.

For the molecule `CCCc1cc(=O)[nH]c2nnc(SCC(=O)Nc3nc4ccccc4s3)n12`, the host macrophage viability turned out to be 114%.

For the molecule `N#C/C(=C\c1c(Oc2ccccc2F)nc2ccccn2c1=O)C(N)=O`, the host macrophage viability was determined as 123%.

Consider `O=C(c1cc(-c2ccc3c(c2)OCCO3)on1)N(c1ccccc1)c1ccccc1`, for which the host macrophage viability is 119%.

As for `O=C(CSc1nnc(-c2cccnc2)n1-n1cccc1)Nc1ccc(Cl)c(C(F)(F)F)c1`, the host macrophage viability came out at 118%.

With `Cc1cccc(-n2c(SCC(=O)NNC(=O)c3ccco3)nnc2-c2cccnc2)c1C`, the host macrophage viability is 118%.

As for `Cc1ccc(-n2nnc(C(=O)NCc3ccc(Cl)cc3)c2-n2cccc2)cc1`, the host macrophage viability came out at 120%.

Turning to `CS(=O)(=O)Nc1nc2ccc(NC(=O)c3n[nH]c4c3CCCC4)cc2s1`, the host macrophage viability stood at 91.9%.

Take `Cc1ccc(/C=C2\SC(=S)N(NC(=O)c3ccccc3Br)C2=O)o1`: the host macrophage viability was found to be 110 ± 25%.

Turning to `COc1ccc(-c2cccc(NS(=O)(=O)c3cccc([N+](=O)[O-])c3)c2)nn1`, the host macrophage viability is 125%.

Regarding `COc1cccc(C(c2sc3ncnn3c2O)N2CC(C)CC(C)C2)c1` (centres undefined), the host macrophage viability came out at 115%.

On to `COCCCNC(=O)C1CCN(c2ncnc3onc(-c4ccc(C)cc4)c23)CC1`, for which the host macrophage viability stood at 112%.

Take `O=C(Nc1ccc(-c2nc3cccnc3s2)cc1)c1ccc(Br)o1`: the host macrophage viability was determined as 140 ± 17%.

In the case of `O=C(O)/C=C/c1ccc2c(-c3ccccc3)onc2c1`, the host macrophage viability came to 89.1%.

Take `Cc1cc(Cl)cc2sc(NC(=O)CN3C(=O)CCC3=O)nc12`: the host macrophage viability amounted to 111%.

Turning to `O=C(CSc1nc(O)c2nc[nH]c2n1)N1CCCC1`, the host macrophage viability came out at 107%.
